PubChem BioAssay AID504764 – Drosophila RNAi Screening Center – 2011
Purpose: 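Knock-downs that raise or lower a Notch target reporter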 (primary screen). System: Drosophila Kc167 cells. Knock-down reagent: long dsRNA against Drosophila genes. Time to read-out: about 5 days (4 days dsRNA, then 24 h after transfection). Treatment: transfection of constitutively active membrane-tethered Notch lacking the extracellular domain, read 24 h later. Measured: 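Firefly luciferase from an E(spl)m3 reporter with active Notch, plus control-promoter and uninduced reporter wells for normalisation; unnormalised counts, duplicate wells a and b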. Scale: induced reporter light, run 1, well a and induced reporter light, run 1, well b: higher = more light from the Notch target reporter with active Notch; control promoter light, run 1, well a and control promoter light, run 1, well b: higher = more light from the viral control promoter (cell number, transfection, viability); uninduced reporter light, run 1, well a: higher = more light from the Notch target reporter without active Notch. Rule for the call: 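Hit if the duplicate-averaged log2 ratio of induced to control-promoter light gives a plate-wise z beyond ±2, or induced to uninduced beyond ±1.8; weak-control or discordant-duplicate wells dropped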. Meaning of the calls: active = modifier hit (raised or lowered Notch signal); inactive = not a hit.
In all, the deposit lists about 22,000 reagents; shown is an unselected part of those with a known target gene and a result. Of all reagents, 403 (1.9%) were called active. 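Unnormalised raw counts per well; ratio z-scores behind the hit calls and whether each hit raises or lowers signal are not deposited.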 Names joined by + are all predicted targets of the reagent. Reagent sequences are not shown. Not stated in the record: the amount of reagent.

gene,DRSC id,"induced reporter light, run 1, well a","induced reporter light, run 1, well b","control promoter light, run 1, well a","control promoter light, run 1, well b","uninduced reporter light, run 1, well a",outcome
fok,DRSC02103,64765,58650,62770,96295,4355,inactive
CG3961,DRSC10390,87425,1.10e5,59765,74370,8085,inactive
CG3961,DRSC10391,2.39e5,2.28e5,3.45e5,2.95e5,12460,inactive
fry,DRSC08993,1.88e5,1.52e5,1.71e5,2.12e5,13305,inactive
fry,DRSC10172,1.59e5,1.08e5,1.75e5,1.52e5,7025,inactive
fry,DRSC10709,1.42e5,1.18e5,2.36e5,1.91e5,8010,inactive
fry,DRSC10712,78630,67305,33390,16795,9755,inactive
CG13449,DRSC09996,1.79e5,1.94e5,2.46e5,1.93e5,9170,inactive
Etf-QO,DRSC06111,2.70e5,2.34e5,3.57e5,3.02e5,21480,inactive
asRNA:CR42547 + CG15674,DRSC04264,65735,52140,49250,61265,2805,inactive
CG17826,DRSC10289,1.36e5,1.39e5,1.85e5,1.50e5,6410,inactive
PpD6,DRSC00774,1.61e5,1.52e5,1.80e5,1.62e5,10425,inactive
Pgcl,DRSC18815,1.29e5,1.58e5,2.31e5,3.10e5,13442,inactive
wkd,DRSC15777,86525,88350,84140,66105,5500,inactive
Taf9,DRSC20326,88900,82215,75845,32590,5615,inactive
Cdk7,DRSC18451,1.17e5,1.24e5,3.34e5,2.59e5,10485,inactive
MsR2 + CG13802 (retired record),DRSC08336,1.22e5,1.01e5,1.05e5,92880,6940,active
MsR2 + CG13802 (retired record),DRSC08337,93180,1.15e5,1.49e5,1.00e5,5860,inactive
CG13455,DRSC10002,1.94e5,1.87e5,2.72e5,2.09e5,9720,inactive
kappaTry,DRSC06146,1.28e5,1.14e5,1.41e5,1.36e5,9888,inactive
etaTry,DRSC07613,1.13e5,1.22e5,1.89e5,1.55e5,11115,inactive
wdp,DRSC04367,1.81e5,1.91e5,1.46e5,1.54e5,15730,inactive
CtsF,DRSC12056,1.43e5,99840,1.49e5,1.61e5,10295,inactive
CtsF,DRSC12195,1.59e5,1.50e5,1.15e5,82155,13028,inactive
CtsF,DRSC12196,1.38e5,1.49e5,1.27e5,1.02e5,8700,inactive
Cpr65Eb,DRSC11026,1.93e5,1.65e5,3.01e5,2.78e5,12292,inactive
CG8248,DRSC07124,1.98e5,1.87e5,1.56e5,1.85e5,17975,inactive
CG6409,DRSC10630,99950,87375,84240,29835,9965,inactive
CG2111,DRSC18205,82325,76130,1.01e5,78975,5565,inactive
modSP,DRSC16726,2.70e5,2.79e5,2.40e5,2.49e5,19995,inactive
modSP,DRSC16857,2.42e5,2.52e5,2.65e5,2.52e5,16275,inactive
CG3448,DRSC10368,1.23e5,1.40e5,1.70e5,1.90e5,5775,inactive
CG11170,DRSC04090,1.94e5,1.99e5,1.58e5,1.68e5,11850,inactive
CG3038,DRSC18618,1.14e5,1.34e5,1.91e5,2.09e5,9738,inactive
Rad23,DRSC17167,1.67e5,1.81e5,2.34e5,1.94e5,12545,inactive
CG42650,DRSC12462,1.71e5,1.55e5,1.51e5,1.46e5,13315,inactive
drpr,DRSC08143,1.43e5,2.32e5,3.64e5,3.26e5,10825,inactive
drpr,DRSC08525,1.48e5,1.29e5,2.66e5,2.45e5,8425,inactive
Grl40a,DRSC03677,92855,79630,94500,91800,9230,inactive
CG16736,DRSC15145,52855,54940,48090,72095,3470,inactive
Mgat1,DRSC07463,2.45e5,1.42e5,2.85e5,2.36e5,10960,inactive
CG15919,DRSC06594,1.74e5,1.70e5,2.28e5,2.06e5,13480,inactive
CG10171,DRSC09711,1.16e5,1.07e5,1.08e5,65970,10550,inactive
CG34276,DRSC15811,1.90e5,2.08e5,2.20e5,2.32e5,17575,inactive
Pdha,DRSC18413,1.19e5,1.32e5,2.58e5,2.50e5,9730,inactive
CG31233,DRSC15888,1.43e5,1.54e5,1.77e5,1.57e5,10800,inactive
CG15059,DRSC19633,63265,56570,75655,55045,9728,inactive
CG9222,DRSC03158,1.72e5,1.62e5,2.53e5,1.73e5,11160,inactive
PsGEF (retired record),DRSC18600,1.11e5,1.05e5,1.46e5,1.58e5,7165,inactive
PsGEF (retired record),DRSC18601,50785,49005,84030,76750,6845,inactive

Laid out differently: entries from further up.
CG6409 [DRSC10630] | induced reporter light, run 1, well a = 99950; induced reporter light, run 1, well b = 87375; control promoter light, run 1, well a = 84240; control promoter light, run 1, well b = 29835; uninduced reporter light, run 1, well a = 9965; outcome = inactive
CG2111 [DRSC18205] | induced reporter light, run 1, well a = 82325; induced reporter light, run 1, well b = 76130; control promoter light, run 1, well a = 1.01e5; control promoter light, run 1, well b = 78975; uninduced reporter light, run 1, well a = 5565; outcome = inactive
modSP [DRSC16726] | induced reporter light, run 1, well a = 2.70e5; induced reporter light, run 1, well b = 2.79e5; control promoter light, run 1, well a = 2.40e5; control promoter light, run 1, well b = 2.49e5; uninduced reporter light, run 1, well a = 19995; outcome = inactive
